Source: PMC4141641

Protein sequences, listed by entry. Tags and fused reporters are not part of them.
UniProt P11940: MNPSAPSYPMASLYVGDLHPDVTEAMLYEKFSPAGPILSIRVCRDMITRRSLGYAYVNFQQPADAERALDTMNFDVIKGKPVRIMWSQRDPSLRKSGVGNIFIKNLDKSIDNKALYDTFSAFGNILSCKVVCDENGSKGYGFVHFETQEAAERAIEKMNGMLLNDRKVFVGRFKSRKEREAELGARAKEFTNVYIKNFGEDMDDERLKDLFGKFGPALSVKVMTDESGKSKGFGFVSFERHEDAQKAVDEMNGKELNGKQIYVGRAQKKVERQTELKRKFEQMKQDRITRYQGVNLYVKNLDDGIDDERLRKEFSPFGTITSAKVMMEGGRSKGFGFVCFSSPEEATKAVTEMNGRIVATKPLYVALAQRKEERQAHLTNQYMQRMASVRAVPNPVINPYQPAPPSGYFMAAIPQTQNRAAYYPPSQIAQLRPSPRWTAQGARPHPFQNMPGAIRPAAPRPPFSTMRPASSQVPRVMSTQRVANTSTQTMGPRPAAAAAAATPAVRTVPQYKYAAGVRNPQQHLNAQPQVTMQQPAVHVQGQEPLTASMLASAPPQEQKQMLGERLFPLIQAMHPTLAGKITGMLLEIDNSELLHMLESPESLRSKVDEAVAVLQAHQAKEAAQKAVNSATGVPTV
UniProt P17844: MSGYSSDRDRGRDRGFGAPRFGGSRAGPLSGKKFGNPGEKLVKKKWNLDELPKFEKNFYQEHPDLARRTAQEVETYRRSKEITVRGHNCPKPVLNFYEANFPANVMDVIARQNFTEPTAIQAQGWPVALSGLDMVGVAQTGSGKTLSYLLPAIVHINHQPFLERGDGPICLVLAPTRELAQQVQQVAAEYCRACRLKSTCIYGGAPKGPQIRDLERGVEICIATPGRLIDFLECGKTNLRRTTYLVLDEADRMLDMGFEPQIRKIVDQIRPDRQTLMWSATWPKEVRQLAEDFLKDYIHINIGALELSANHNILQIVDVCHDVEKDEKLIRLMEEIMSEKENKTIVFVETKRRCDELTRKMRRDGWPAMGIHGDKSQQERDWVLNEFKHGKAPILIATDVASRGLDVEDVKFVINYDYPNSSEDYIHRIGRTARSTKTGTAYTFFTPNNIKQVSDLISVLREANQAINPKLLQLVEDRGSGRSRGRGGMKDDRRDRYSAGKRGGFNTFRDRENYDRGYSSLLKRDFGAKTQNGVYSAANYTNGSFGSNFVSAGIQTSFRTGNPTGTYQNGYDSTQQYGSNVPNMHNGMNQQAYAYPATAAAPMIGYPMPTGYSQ
UniProt P12956: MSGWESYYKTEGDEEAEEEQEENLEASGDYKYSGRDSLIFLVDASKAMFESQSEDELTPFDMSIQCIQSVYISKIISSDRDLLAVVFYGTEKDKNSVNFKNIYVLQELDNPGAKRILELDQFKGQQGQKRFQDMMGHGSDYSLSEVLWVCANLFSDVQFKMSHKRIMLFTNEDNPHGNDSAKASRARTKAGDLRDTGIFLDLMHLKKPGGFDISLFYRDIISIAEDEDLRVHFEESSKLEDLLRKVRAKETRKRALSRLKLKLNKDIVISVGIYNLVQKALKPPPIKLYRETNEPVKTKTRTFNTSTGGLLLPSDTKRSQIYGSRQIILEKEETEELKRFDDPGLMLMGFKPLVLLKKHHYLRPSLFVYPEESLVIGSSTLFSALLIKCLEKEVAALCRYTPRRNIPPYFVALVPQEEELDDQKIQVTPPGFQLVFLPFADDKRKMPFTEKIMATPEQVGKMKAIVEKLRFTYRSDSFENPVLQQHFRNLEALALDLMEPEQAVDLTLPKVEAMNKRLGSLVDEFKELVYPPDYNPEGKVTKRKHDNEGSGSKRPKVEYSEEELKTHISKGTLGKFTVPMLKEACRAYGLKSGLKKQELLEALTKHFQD
UniProt P11142: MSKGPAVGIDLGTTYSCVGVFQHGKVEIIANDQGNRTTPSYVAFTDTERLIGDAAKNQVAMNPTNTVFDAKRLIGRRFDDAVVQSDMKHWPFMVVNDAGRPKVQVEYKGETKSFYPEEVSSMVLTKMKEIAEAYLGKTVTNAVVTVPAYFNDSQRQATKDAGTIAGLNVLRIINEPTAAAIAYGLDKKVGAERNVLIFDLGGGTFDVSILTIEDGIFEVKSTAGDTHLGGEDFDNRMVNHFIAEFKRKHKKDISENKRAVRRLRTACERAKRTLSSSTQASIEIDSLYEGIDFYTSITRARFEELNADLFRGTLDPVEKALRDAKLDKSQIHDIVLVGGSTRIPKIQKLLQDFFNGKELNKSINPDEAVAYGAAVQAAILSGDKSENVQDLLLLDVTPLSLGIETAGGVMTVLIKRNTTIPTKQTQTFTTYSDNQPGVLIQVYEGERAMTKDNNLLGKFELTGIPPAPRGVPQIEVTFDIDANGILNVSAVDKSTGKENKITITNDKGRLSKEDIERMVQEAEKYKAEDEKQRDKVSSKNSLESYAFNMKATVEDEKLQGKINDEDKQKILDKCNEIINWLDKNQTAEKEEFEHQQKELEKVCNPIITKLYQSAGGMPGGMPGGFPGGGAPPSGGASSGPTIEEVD
UniProt P13010: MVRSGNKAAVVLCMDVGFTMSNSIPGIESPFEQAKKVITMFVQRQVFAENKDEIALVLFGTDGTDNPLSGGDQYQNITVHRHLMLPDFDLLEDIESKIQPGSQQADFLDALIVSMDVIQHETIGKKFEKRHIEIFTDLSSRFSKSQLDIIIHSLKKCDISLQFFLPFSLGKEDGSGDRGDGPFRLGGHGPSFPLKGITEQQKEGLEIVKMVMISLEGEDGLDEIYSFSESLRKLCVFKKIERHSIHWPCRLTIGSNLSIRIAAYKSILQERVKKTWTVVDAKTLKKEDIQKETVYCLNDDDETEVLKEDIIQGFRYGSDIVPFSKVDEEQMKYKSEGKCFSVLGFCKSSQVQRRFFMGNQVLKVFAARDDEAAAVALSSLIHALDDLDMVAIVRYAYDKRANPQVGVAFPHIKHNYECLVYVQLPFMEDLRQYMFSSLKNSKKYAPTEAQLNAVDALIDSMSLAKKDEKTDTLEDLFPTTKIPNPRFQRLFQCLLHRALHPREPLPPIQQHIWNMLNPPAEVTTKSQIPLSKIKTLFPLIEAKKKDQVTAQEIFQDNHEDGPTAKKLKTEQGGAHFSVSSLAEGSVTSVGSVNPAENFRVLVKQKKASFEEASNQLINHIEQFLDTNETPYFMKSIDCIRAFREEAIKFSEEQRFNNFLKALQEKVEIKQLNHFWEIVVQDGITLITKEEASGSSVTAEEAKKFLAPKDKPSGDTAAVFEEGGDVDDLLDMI
UniProt Q12905: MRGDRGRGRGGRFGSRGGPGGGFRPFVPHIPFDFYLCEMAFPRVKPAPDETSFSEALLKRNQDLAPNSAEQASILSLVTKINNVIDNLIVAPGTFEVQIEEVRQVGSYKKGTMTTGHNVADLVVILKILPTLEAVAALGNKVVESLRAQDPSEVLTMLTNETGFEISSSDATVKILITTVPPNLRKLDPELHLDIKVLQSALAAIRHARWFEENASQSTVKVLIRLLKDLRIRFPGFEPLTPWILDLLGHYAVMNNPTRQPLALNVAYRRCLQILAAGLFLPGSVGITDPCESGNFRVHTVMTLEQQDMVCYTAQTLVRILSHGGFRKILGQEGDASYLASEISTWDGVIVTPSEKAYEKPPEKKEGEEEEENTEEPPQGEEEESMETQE
UniProt P09874: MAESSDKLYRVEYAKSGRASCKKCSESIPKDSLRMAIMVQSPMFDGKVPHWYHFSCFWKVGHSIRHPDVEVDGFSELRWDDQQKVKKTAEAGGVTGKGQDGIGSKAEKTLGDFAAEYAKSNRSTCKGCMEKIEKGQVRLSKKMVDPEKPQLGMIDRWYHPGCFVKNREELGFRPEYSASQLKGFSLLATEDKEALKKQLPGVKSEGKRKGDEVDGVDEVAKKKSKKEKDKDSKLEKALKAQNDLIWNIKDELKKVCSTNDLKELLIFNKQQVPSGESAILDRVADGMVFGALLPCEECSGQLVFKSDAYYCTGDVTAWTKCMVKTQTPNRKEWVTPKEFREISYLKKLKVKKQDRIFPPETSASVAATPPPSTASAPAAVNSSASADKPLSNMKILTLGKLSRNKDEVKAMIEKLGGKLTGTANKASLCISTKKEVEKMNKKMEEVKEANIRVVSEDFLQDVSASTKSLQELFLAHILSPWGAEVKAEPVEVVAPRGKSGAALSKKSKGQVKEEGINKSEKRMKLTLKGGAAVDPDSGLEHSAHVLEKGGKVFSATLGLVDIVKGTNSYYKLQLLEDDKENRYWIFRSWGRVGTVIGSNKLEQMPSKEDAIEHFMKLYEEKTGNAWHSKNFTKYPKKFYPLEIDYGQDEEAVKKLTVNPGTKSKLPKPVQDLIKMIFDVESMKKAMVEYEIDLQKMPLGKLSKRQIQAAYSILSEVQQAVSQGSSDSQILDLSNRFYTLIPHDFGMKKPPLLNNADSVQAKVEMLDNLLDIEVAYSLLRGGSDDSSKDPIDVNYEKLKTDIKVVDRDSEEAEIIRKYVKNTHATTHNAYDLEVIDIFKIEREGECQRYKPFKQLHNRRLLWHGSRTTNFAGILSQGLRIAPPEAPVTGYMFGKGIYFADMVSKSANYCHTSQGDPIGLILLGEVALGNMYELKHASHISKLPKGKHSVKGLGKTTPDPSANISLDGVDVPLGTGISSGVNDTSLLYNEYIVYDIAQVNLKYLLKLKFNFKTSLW

Target: FLAG-NKX3.1 (human) (UniProt Q99801)
Test: affinity purification with mass spectrometry; FLAG-NKX3.1 from transfected LNCaP lysate (50 mM Tris-HCl pH 7.4, 150 mM NaCl, 1% Triton X 100; MG132 4 h before lysis) on anti-FLAG M2 magnetic beads, 4 h at 4°C, eluted with triple FLAG peptide; LC-MS/MS; four purifications against mock (empty vector)

binding	Molecule
binds	chromatin and nuclear assembly regulator BANF1 (protein, UniProt O75531 1-89) MTTSQKHRDFVAEPMGEKPVGSLAGIGEVLGKKLEERGFDKAYVVLGQFLVLKKDEDLFREWLKDTCGANAKQSRDCFGCLREWCDAFL

Target: FLAG-NKX3.1 (human) (UniProt Q99801)
Test: as above
Remark: another data set of the same source

Molecule	binding
PABPC1 (from UniProt P11940 1-636)	binds
RNA helicase DDX5 (from UniProt P17844 1-614) (enzyme)	binds
XRCC6/Ku70 (from UniProt P12956 1-609)	binds
heat shock protein HSPA8 (from UniProt P11142 1-646)	binds

More lines, now with the values ahead:

binding	Molecule
binds	XRCC5/Ku80 (from UniProt P13010 1-732)
binds	interleukin enhancer binding factor 2 (ILF2/NFAT 45 kDa) (from UniProt Q12905 1-390)
binds	poly(ADP) ribose polymerase (PARP1) (from UniProt P09874 1-1014) (enzyme)

These are yes or no findings as the source states them, for the method shown. In cells and extracts the contact can be indirect. These calls come from enrichment with a bait or labelling near it, and not all partners need be listed.
